In the supplement of paper PMC11546906:
Where a name gives a salt, the structure may show the parent alone. Some of the results follow. Single values are uncertain here, since repeats match poorly.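 Screen of FDA-approved drugs, each combined with colistin at one-eighth of its MIC, against a multidrug-resistant mcr-1-positive clinical E. coli isolate; growth read as OD600 after 24 h. Bacteria without drug were the growth control and plain broth the blank. A combination counted as active when OD600 fell below 0.2.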

system: Escherichia coli 42 (mcr-1-positive clinical isolate); assay: OD600 after 24 h growth with compound plus colistin (absorbance units (OD600)); higher = more bacterial growth (less inhibition); conditions: first compound 25 µM; colistin concentration 0.5 ug/mL; incubation time 24 h; 37 °C

OD600, inactive:
CN1[C@@H]2CC[C@H]1C[C@@H](OC(c1ccccc1)c1ccccc1)C2 [Benztropine mesylate] + CCC(C)CCCC(=O)N[C@@H](CCN)C(=O)N[C@H](C(=O)N[C@@H](CCN)C(=O)N[C@H]1CCNC(=O)[C@H]([C@@H](C)O)NC(=O)[C@H](CCN)NC(=O)[C@H](CCN)NC(=O)[C@H](CC(C)C)NC(=O)[C@@H](CC(C)C)NC(=O)[C@H](CCN)NC1=O)[C@@H](C)O [colistin] 0.883
CCCOc1ccc(C(=O)OCCN(CC)CC)cc1N [Proparacaine hydrochloride] + CCC(C)CCCC(=O)N[C@@H](CCN)C(=O)N[C@H](C(=O)N[C@@H](CCN)C(=O)N[C@H]1CCNC(=O)[C@H]([C@@H](C)O)NC(=O)[C@H](CCN)NC(=O)[C@H](CCN)NC(=O)[C@H](CC(C)C)NC(=O)[C@@H](CC(C)C)NC(=O)[C@H](CCN)NC1=O)[C@@H](C)O [colistin] 0.992
O=C(O)CCc1nc(-c2ccccc2)c(-c2ccccc2)o1 [Oxaprozin] + CCC(C)CCCC(=O)N[C@@H](CCN)C(=O)N[C@H](C(=O)N[C@@H](CCN)C(=O)N[C@H]1CCNC(=O)[C@H]([C@@H](C)O)NC(=O)[C@H](CCN)NC(=O)[C@H](CCN)NC(=O)[C@H](CC(C)C)NC(=O)[C@@H](CC(C)C)NC(=O)[C@H](CCN)NC1=O)[C@@H](C)O [colistin] 1.15
CN(C)CCC(c1ccc(Cl)cc1)c1ccccn1 (centres undefined) [Chlorpheniramine maleate] + CCC(C)CCCC(=O)N[C@@H](CCN)C(=O)N[C@H](C(=O)N[C@@H](CCN)C(=O)N[C@H]1CCNC(=O)[C@H]([C@@H](C)O)NC(=O)[C@H](CCN)NC(=O)[C@H](CCN)NC(=O)[C@H](CC(C)C)NC(=O)[C@@H](CC(C)C)NC(=O)[C@H](CCN)NC1=O)[C@@H](C)O [colistin] 0.981
